No constants are given. Whether binding was seen depends on the method and setting. Some binding calls cover weakened binding; strength is not graded here. Where a sequence is shown, tags or fusion partners need not be part of it.
Assays:
[1] = molecular target: T1, FL CLF (CURLY LEAF), yeast two-hybrid fusion (Arabidopsis thaliana) (UniProt P93831); assay: two-hybrid
T1 sequence: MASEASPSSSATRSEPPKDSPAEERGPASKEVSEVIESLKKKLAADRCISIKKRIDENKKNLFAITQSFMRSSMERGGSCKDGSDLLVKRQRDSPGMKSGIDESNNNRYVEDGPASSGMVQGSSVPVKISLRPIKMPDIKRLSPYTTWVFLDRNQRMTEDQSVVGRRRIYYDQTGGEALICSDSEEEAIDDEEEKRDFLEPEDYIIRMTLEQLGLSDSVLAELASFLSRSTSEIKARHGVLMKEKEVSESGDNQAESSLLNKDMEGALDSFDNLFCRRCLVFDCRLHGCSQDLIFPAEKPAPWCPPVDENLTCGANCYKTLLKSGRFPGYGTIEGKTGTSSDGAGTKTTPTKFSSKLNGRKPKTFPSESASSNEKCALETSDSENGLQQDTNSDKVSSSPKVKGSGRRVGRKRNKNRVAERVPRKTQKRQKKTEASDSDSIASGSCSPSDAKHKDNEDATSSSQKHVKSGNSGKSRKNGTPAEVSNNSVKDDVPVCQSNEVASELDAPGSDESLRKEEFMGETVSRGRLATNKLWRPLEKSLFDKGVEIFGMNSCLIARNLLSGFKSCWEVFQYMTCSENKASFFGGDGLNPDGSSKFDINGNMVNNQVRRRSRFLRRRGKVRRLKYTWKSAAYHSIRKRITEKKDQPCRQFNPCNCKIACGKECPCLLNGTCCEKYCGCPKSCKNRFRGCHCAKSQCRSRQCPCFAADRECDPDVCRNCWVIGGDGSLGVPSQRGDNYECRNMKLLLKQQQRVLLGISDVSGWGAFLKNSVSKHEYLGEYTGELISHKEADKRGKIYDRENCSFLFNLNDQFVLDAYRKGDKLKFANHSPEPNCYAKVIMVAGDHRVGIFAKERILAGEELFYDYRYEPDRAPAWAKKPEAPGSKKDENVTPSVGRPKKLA

[2] = molecular target: full-length (FL) ULT1, yeast two-hybrid fusion (Arabidopsis thaliana) (UniProt Q8GZA8); assay: two-hybrid

B1: full-length (FL) ULT1, yeast two-hybrid fusion (protein, UniProt Q8GZA8 1-237)
chain: MANNEGEMQCGSMLFKQEELQEMSGVNVGGDYVEVMCGCTSHRYGDAVARLRVFPTGDLEITCECTPGCDEDKLTPAAFEKHSGRETARKWKNNVWVIIGGEKVPLSKTVLLKYYNESSKKCSRSNRSQGAKVCHRDEFVGCNDCGKERRFRLRSRDECRLHHNAMGDPNWKCSDFPYDKITCEEEEERGSRKVYRGCTRSPSCKGCTSCVCFGCELCRFSECTCQTCVDFTSNVKA
binding [1]: binds | binding [2]: binds

B2: ULT1_(1-193), yeast two-hybrid fusion (domain or fragment, UniProt Q8GZA8 1-193)
chain: MANNEGEMQCGSMLFKQEELQEMSGVNVGGDYVEVMCGCTSHRYGDAVARLRVFPTGDLEITCECTPGCDEDKLTPAAFEKHSGRETARKWKNNVWVIIGGEKVPLSKTVLLKYYNESSKKCSRSNRSQGAKVCHRDEFVGCNDCGKERRFRLRSRDECRLHHNAMGDPNWKCSDFPYDKITCEEEEERGSRK
binding [1]: binds

From article doi:10.1101/2024.10.21.619451
